In US20190086302A1, “COMPOSITION FOR PREPARING BIOLOGICAL MATERIAL HAVING EXCELLENT LIGHT TRANSMISSIVITY AND USE OF COMPOSITION” (RIKEN, priority 2016, published 2019):

Tested on: Serius
Assay: 1st quenching assay (relative fluorescence of fluorescent protein)
Assay type: biochemical
Conditions: Table 2, relative fluorescence remaining

Molecule	Fluorescence quench Average	also measured
NCCCCCO [#0003, 5-Amino-1-pentanol]	0.63	–
NCCCCO [#0006, 4-Amino-1-butanol]	0.64	–
NCCCCCCO [#0007, 6-Amino-1-hexanol]	0.22	–
NCC1CCCC(CN)C1 (stereo not drawn) [#0070, 1,3-Bis(aminomethyl)cyclohexane]	0.52	–
NCC1CCC(CN)CC1 (stereo not drawn) [#0071, 1,4-Bis(aminomethyl)cyclohexane]	0.56	–
Cl.O=C(O)CCP(CCC(=O)O)CCC(=O)O [#0197, Tris(2-carboxyethyl)phosphine hydrochloride]	−0.05	–
NCCCNCCNCCCN [#0277, N,N′-Bis(3-aminopropyl)ethylenediamine]	0.71	–
CCCCCCCCCCCCCC[N+](C)(C)Cc1ccccc1 [#0362, Benzyldimethyltetradecylammonium chloride hydrate]	1.07	–
CN(CCCN)CCCN [#0380, 3,3′-Diamino-N-methyldipropylamine]	0.62	–
OCCNCc1ccccc1 [#0389, N-Benzylethanolamine]	0.57	–
NCCCOCCCN [#0394, Bis(3-aminopropyl) ehter]	0.54	–
NCC1CCOCC1 [#0407, 4-Aminomethyltetrahydropyran]	0.65	–
CCCCN(CCO)CCO [#0414, N-Butyldiethanolamine]	0.70	–
[Cl-].c1ccc(C[P+](c2ccccc2)(c2ccccc2)c2ccccc2)cc1 [#0425, Benzyltriphenylphosphonium chloride]	0.35	–
NCCCn1ccnc1 [#0484, 1-(3-Aminopropyl)imidazole]	0.72	–
C1CCC2=NCCCN2CC1 [#0594, 1,8-Diazabicyclo[5.4.0]-7-undecene]	0.54	–
CCCCCCCCCCCCN [#0627, Dodecylamine acetate]	1.05	–
CCCCCCCCCCCC[n+]1ccccc1 [#0635, 1-Dodecylpyridinium chloride]	1.04	–
Cc1cc(=O)n(-c2ccccc2)n1C [#0640, 2,3-Dimethyl-1-phenyl-5-pyrazolone]	0.84	–
CCCCCCCCCC[N+](C)(C)CCCS(=O)(=O)O [#0651, Decyldimethyl(3-sulfopropyl)ammonium hydroxide]	0.07	–
C[n+]1ccc(-c2cc[n+](C)cc2)cc1 [#0652, 1,1′-Dimethyl-4,4′-bipyridinium dichloride]	0.42	–
CCC(N)CCN (stereo not drawn) [#0678, 1,3-Diaminopentane]	0.60	–
CCCCCCCCCCCC[N+](C)(C)CCCS(=O)(=O)O [#0694, Dodecyldimethyl(3-sulfopropyl)ammonium hydroxide]	1.09	Fluorescence quench Average (listed as #0661): 1.13
CCN(CC)CCN [#0779, N,N-Diethylethylenediamine]	0.70	–
NCCCCN [#0783, 1,4-Diaminobutane]	0.60	–
NCCCNCCCN [#0785, 3,3′-Diaminodipropylamine]	0.62	–

Molecule	Fluorescence quench Average	also measured
CN(C)C(=O)c1ccccc1 [#0788, N,N-Dimethylbenzamide]	0.76	–
NC(=O)c1cccnc1 [#0855, Nicotinamide]	0.75	–
CCn1ccnc1 [#0938, 1-Ethylimidazole]	0.80	–
Cc1cccc(C)n1 [#1008, 2,6-Lutidine]	0.71	–
CCCCCCCCCCCC[N+](C)(C)C [#1021, Dodecyltrimethylammonium chloride]	1.11	–
CC(C)NCCCN [#1027, N-Isopropyl-1,3-diaminopropane]	0.55	–
OCCN1CC1 [#1061, 1-(2-Hydroxyethyl)ethyleneimine]	0.80	–
NCC(O)CN [#1062, 1,3-Diamino-2-propanol]	0.67	–
c1cnccn1 [#1085, Pyrazine]	0.67	–
NCc1cccnc1 [#1102, 3-Picolylamine]	0.77	–
CC(O)CN(CCN(CC(C)O)CC(C)O)CCN(CC(C)O)CC(C)O (stereo not drawn) [#1105, N,N,N′,N″,N″-Pentakis(2-hydroxypropyl)diethylenetriamine]	0.74	–
c1cnc(N2CCNCC2)nc1 [#1167, 1-(2-Pyrimidyl)piperazine]	0.01	–
OCCCC1CCN(CCO)CC1 [#1226, 1-(2-Hydroxyethyl)-4-(3-hydroxypropyl)piperidine]	0.76	–
CC(CN)CCCN (stereo not drawn) [#1267, 2-Methyl-1,5-diaminopentane]	0.51	–
CNC(=O)c1cccnc1 [#1283, N-Methylnicotinamide]	0.71	–
Cc1ccnc(C)c1 [#1312, 2,4-Lutidine]	0.84	–
OCCCCCBr [#1367, 5-Bromo-1-pentanol]	−0.01	–
COc1ccc(CO)cc1OC [#1422, Veratryl alcohol]	0.89	–
CN(C)C(=N)N(C)C [#1444, 1,1,3,3-Tetramethylguanidine]	0.14	–
C[C@H](CCC(=O)[O-])[C@H]1CC[C@H]2[C@@H]3CC[C@@H]4C[C@H](O)CC[C@]4(C)[C@H]3C[C@H](O)[C@]12C.[Na+] [#1507, Sodium deoxycholate]	1.03	Fluorescence quench Average (listed as #0562): 1.08
OCCN(CCO)CCN(CCO)CCO [#1537, N,N,N′,N′-Tetrakis(2-hydroxyethyl)ethylenediamine]	0.66	–
CCN(CC)CCO [#1575, 2-Diethylaminoethanol]	0.61	–
CC1(C)CC(N)CC(C)(CN)C1 (stereo not drawn) [#1602, Isophoronediamine]	0.63	–
C[N+](C)(C)Cc1ccccc1.[OH-] [#03887, Benzyltrimethylammonium hydroxide]	0.00	–
Dodacene-1 LAS (JIS K 3361-1990) [#0672]	1.08	–
Tween ® 40 [#1465]	0.64	–
